Reference: PubChem BioAssay AID1224828 (NIAID, 2016)
Aim: 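Find genes required for NF-kappaB p65 moving into the nucleus after LPS in mouse macrophages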 (primary screen). Cells: mouse RAW264.7 G9 macrophage reporter cells (GFP-p65, Tnf promoter-mCherry). Reagents: siRNA pool against mouse genes, 100 nM. Duration: 2 days siRNA transfection, then 40 min LPS before fixation. Treatment: LPS (Salmonella minnesota R595) at 10 ng/ml. Read-out: 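Imaged p65 nuclear translocation ratio, normalised to the plate median, converted to robust z-scores and averaged across two replicates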. Direction: p65 translocation robust z-score: higher = more nuclear NF-kappaB p65 after LPS than the plate median; nuclear/cytoplasmic p65 ratio: higher = more nuclear NF-kappaB p65. Rule for the call: 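Active if robust z is above 3.3 (negative regulators) or below -1.56, the Tlr4 control median (positive regulators); activity score 50 or more; control wells not called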. Meaning of the calls: active = hit (p65 shift raised or lowered); inactive = no clear change.
This is one part, drawn at random, of about 17,000 reagents. 762 of them (4.5%) were called active. 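Active calls include both raised and lowered p65 entry, mostly lowered; wells with fewer than 50 cells lack a z-score.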 Raw values vary from plate to plate and are shown uncorrected. Entries without a mark were called inactive.

Bach2 | p65 translocation robust z-score = 0.92; nuclear/cytoplasmic p65 ratio, rep 1 = 1.84; nuclear/cytoplasmic p65 ratio, rep 2 = 1.67; low cell count flag = enough cells to score
Clcnkb | p65 translocation robust z-score = 0.16; nuclear/cytoplasmic p65 ratio, rep 1 = 1.65; nuclear/cytoplasmic p65 ratio, rep 2 = 1.77; low cell count flag = enough cells to score
Mmp17 | p65 translocation robust z-score = 0.82; nuclear/cytoplasmic p65 ratio, rep 1 = 1.59; nuclear/cytoplasmic p65 ratio, rep 2 = 1.41; low cell count flag = enough cells to score
Dcun1d5 | nuclear/cytoplasmic p65 ratio, rep 1 = 1.21; nuclear/cytoplasmic p65 ratio, rep 2 = 1.2; low cell count flag = fewer than 50 cells per well; well left out of scoring
Cela2a | p65 translocation robust z-score = 0.24; nuclear/cytoplasmic p65 ratio, rep 1 = 1.49; nuclear/cytoplasmic p65 ratio, rep 2 = 1.47; low cell count flag = enough cells to score
Cdca7 | p65 translocation robust z-score = 0.78; nuclear/cytoplasmic p65 ratio, rep 1 = 1.71; nuclear/cytoplasmic p65 ratio, rep 2 = 1.91; low cell count flag = enough cells to score
Tcf19 | p65 translocation robust z-score = -0.66; nuclear/cytoplasmic p65 ratio, rep 1 = 1.46; nuclear/cytoplasmic p65 ratio, rep 2 = 1.4; low cell count flag = enough cells to score
St6galnac3 | p65 translocation robust z-score = 1.77; nuclear/cytoplasmic p65 ratio, rep 1 = 1.15; nuclear/cytoplasmic p65 ratio, rep 2 = 1.46; low cell count flag = enough cells to score
Birc5 | p65 translocation robust z-score = -0.17; nuclear/cytoplasmic p65 ratio, rep 1 = 1.66; nuclear/cytoplasmic p65 ratio, rep 2 = 1.52; low cell count flag = enough cells to score
Galnt12 | nuclear/cytoplasmic p65 ratio, rep 1 = 1.11; nuclear/cytoplasmic p65 ratio, rep 2 = 1.18; low cell count flag = fewer than 50 cells per well; well left out of scoring
Vmn1r236 | p65 translocation robust z-score = 3.19; nuclear/cytoplasmic p65 ratio, rep 1 = 1.79; nuclear/cytoplasmic p65 ratio, rep 2 = 1.6; low cell count flag = enough cells to score
Ddhd1 | nuclear/cytoplasmic p65 ratio, rep 1 = 1.15; nuclear/cytoplasmic p65 ratio, rep 2 = 1.13; low cell count flag = fewer than 50 cells per well; well left out of scoring
D330005C11Rik | p65 translocation robust z-score = -0.86; nuclear/cytoplasmic p65 ratio, rep 1 = 1.43; nuclear/cytoplasmic p65 ratio, rep 2 = 1.44; low cell count flag = enough cells to score
Hax1 | nuclear/cytoplasmic p65 ratio, rep 1 = 1.26; nuclear/cytoplasmic p65 ratio, rep 2 = 1.23; low cell count flag = fewer than 50 cells per well; well left out of scoring
Nudcd2 | p65 translocation robust z-score = -0.8; nuclear/cytoplasmic p65 ratio, rep 1 = 1.47; nuclear/cytoplasmic p65 ratio, rep 2 = 1.64; low cell count flag = enough cells to score
Zfp879 | p65 translocation robust z-score = 0.14; nuclear/cytoplasmic p65 ratio, rep 1 = 1.49; nuclear/cytoplasmic p65 ratio, rep 2 = 1.51; low cell count flag = enough cells to score
Slco1a1 | p65 translocation robust z-score = 2.06; nuclear/cytoplasmic p65 ratio, rep 1 = 1.86; nuclear/cytoplasmic p65 ratio, rep 2 = 1.46; low cell count flag = enough cells to score
Cenpb | p65 translocation robust z-score = -0.06; nuclear/cytoplasmic p65 ratio, rep 1 = 1.4; nuclear/cytoplasmic p65 ratio, rep 2 = 1.42; low cell count flag = enough cells to score
Serhl | p65 translocation robust z-score = 4.54 (active); nuclear/cytoplasmic p65 ratio, rep 1 = 1.53; nuclear/cytoplasmic p65 ratio, rep 2 = 2.88; low cell count flag = enough cells to score
Ssty1 | p65 translocation robust z-score = 0.19; nuclear/cytoplasmic p65 ratio, rep 1 = 1.45; nuclear/cytoplasmic p65 ratio, rep 2 = 1.36; low cell count flag = enough cells to score
Rabgap1 | p65 translocation robust z-score = 0.2; nuclear/cytoplasmic p65 ratio, rep 1 = 1.41; nuclear/cytoplasmic p65 ratio, rep 2 = 1.23; low cell count flag = enough cells to score
Wdr46 | nuclear/cytoplasmic p65 ratio, rep 1 = 1.45; nuclear/cytoplasmic p65 ratio, rep 2 = 1.4; low cell count flag = fewer than 50 cells per well; well left out of scoring
Dmrt1 | p65 translocation robust z-score = 0.56; nuclear/cytoplasmic p65 ratio, rep 1 = 1.62; nuclear/cytoplasmic p65 ratio, rep 2 = 1.4; low cell count flag = enough cells to score
Slc33a1 | nuclear/cytoplasmic p65 ratio, rep 1 = 1.13; nuclear/cytoplasmic p65 ratio, rep 2 = 1.18; low cell count flag = fewer than 50 cells per well; well left out of scoring
Zfp9 | p65 translocation robust z-score = -0.26; nuclear/cytoplasmic p65 ratio, rep 1 = 1.45; nuclear/cytoplasmic p65 ratio, rep 2 = 1.16; low cell count flag = enough cells to score
Or6z7 | p65 translocation robust z-score = 0.38; nuclear/cytoplasmic p65 ratio, rep 1 = 1.49; nuclear/cytoplasmic p65 ratio, rep 2 = 1.42; low cell count flag = enough cells to score
Rpl23a | nuclear/cytoplasmic p65 ratio, rep 1 = 1.31; nuclear/cytoplasmic p65 ratio, rep 2 = 1.5; low cell count flag = fewer than 50 cells per well; well left out of scoring

Entries above whose gene name begins with C or c:
Clcnkb | p65 translocation robust z-score = 0.16; nuclear/cytoplasmic p65 ratio, rep 1 = 1.65; nuclear/cytoplasmic p65 ratio, rep 2 = 1.77; low cell count flag = enough cells to score
Cela2a | p65 translocation robust z-score = 0.24; nuclear/cytoplasmic p65 ratio, rep 1 = 1.49; nuclear/cytoplasmic p65 ratio, rep 2 = 1.47; low cell count flag = enough cells to score
Cdca7 | p65 translocation robust z-score = 0.78; nuclear/cytoplasmic p65 ratio, rep 1 = 1.71; nuclear/cytoplasmic p65 ratio, rep 2 = 1.91; low cell count flag = enough cells to score
Cenpb | p65 translocation robust z-score = -0.06; nuclear/cytoplasmic p65 ratio, rep 1 = 1.4; nuclear/cytoplasmic p65 ratio, rep 2 = 1.42; low cell count flag = enough cells to score
